# According to PMC8384837:
# Numbering of substitutions follows the chain as printed. Some of the results follow. For part of these data: At the low end of the ranking the order means little. For part of these data: The source does not settle which construct or isoform was used.
# Assays:
# Details in all cases: yeast three-hybrid, YBZ-1, SC-Leu-His + 0.5 mM 3-AT, 4 days
# [1] = molecular target: T1, PUM1 PUF domain R2-VFQ R3-THE R4-TFR N899V + Y900F + C935T + R936H + Q939E + N971T + H972F + Q975R (UniProt Q14671)
# T1 sequence: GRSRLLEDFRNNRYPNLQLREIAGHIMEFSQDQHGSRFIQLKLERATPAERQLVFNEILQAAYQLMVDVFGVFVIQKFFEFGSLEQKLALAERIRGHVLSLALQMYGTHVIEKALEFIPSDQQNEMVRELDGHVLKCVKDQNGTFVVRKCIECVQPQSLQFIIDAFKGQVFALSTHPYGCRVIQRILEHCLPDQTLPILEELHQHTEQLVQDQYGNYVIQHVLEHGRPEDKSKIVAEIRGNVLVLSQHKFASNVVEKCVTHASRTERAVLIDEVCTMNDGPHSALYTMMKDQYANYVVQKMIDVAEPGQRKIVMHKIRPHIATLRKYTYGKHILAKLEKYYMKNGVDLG
# [2] = molecular target: T2, PUM1 PUF domain R3-THE R4-TFR R7-NPG C935T + R936H + Q939E + N971T + H972F + Q975R + S1079N + N1080P + E1083G (Homo sapiens) (UniProt Q14671)
# T2 sequence: T1 sequence with V72N, F73Y, S252N, N253P, E256G
# [3] = molecular target: T3, PUM1 PUF domain R3-THE R4-TFR C935T + R936H + Q939E + N971T + H972F + Q975R (UniProt Q14671)
# T3 sequence: T1 sequence with V72N, F73Y
# [4] = molecular target: T4, PUM1 PUF domain R5-PHQ R6-SWD C1007P + R1008H + N1043S + Y1044W + Q1047D (UniProt Q14671)
# T4 sequence: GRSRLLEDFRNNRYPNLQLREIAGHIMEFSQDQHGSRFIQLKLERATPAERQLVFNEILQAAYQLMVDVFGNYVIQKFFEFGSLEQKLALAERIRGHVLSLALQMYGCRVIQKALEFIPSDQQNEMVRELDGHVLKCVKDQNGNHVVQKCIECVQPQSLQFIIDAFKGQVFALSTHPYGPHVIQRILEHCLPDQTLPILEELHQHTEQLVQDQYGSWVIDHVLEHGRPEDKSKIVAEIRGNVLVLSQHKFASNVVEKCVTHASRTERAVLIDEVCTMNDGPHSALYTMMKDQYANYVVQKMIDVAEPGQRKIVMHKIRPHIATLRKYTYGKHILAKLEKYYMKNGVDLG
# [5] = molecular target: T5, PUM1 PUF domain R6-SWD R7-NPG N1043S + Y1044W + Q1047D + S1079N + N1080P + E1083G (Homo sapiens) (UniProt Q14671)
# T5 sequence: T4 sequence with P180C, H181R, S252N, N253P, E256G
# [6] = molecular target: T6, PUM1 PUF domain R6-SWD R7-NPG N1043S + Y1044W + Q1047D + S1079N + N1080P + E1083G (UniProt Q14671)
# T6 sequence: T4 sequence with P180C, H181R, S252N, N253P, E256G
sequence,measurement,setting,value
GGCUAGAACUAGUGGAUCCCCCGGCGCCCGGCGGCUCGAGCCCGGGUAAGUGUAAUGCGUCUGCAUGCCGCCGGGCGCCAUGCCUGCAGGUCGACUCUAGAAAACAUG,binding signal (log2 enrichment (interaction score)),[1],-6.01
same,binding signal (log2 enrichment (interaction score)),[2],< -1.06
GGCUAGAACUAGUGGAUCCCCCGGCGCCCGGCGGCUCGAGCCCGGGUAAGUAGAGAUCGUCUGCAUGCCGCCGGGCGCCAUGCCUGCAGGUCGACUCUAGAAAACAUG,binding signal (log2 enrichment (interaction score)),[1],-5.37
same,binding signal (log2 enrichment (interaction score)),[2],-1.36
GGCUAGAACUAGUGGAUCCCCCGGCGCCCGGCGGCUCGAGCCCGGGUAAGUGCAACGGGUCUGCAUGCCGCCGGGCGCCAUGCCUGCAGGUCGACUCUAGAAAACAUG,binding signal (log2 enrichment (interaction score)),[1],-4.79
same,binding signal (log2 enrichment (interaction score)),[3],< -5.81
same,binding signal (log2 enrichment (interaction score)),[4],-8.09
GGCUAGAACUAGUGGAUCCCCCGGCGCCCGGCGGCUCGAGCCCGGGUAAGUUCACUACGUCUGCAUGCCGCCGGGCGCCAUGCCUGCAGGUCGACUCUAGAAAACAUG,binding signal (log2 enrichment (interaction score)),[1],-5.18
same,binding signal (log2 enrichment (interaction score)),[2],-1.09
GGCUAGAACUAGUGGAUCCCCCGGCGCCCGGCGGCUCGAGCCCGGGUAAGUCGGUGCCGUCUGCAUGCCGCCGGGCGCCAUGCCUGCAGGUCGACUCUAGAAAACAUG,binding signal (log2 enrichment (interaction score)),[1],-4.66
same,binding signal (log2 enrichment (interaction score)),[2],< -1.63
GGCUAGAACUAGUGGAUCCCCCGGCGCCCGGCGGCUCGAGCCCGGGUAAGUAUAGCAAGUCUGCAUGCCGCCGGGCGCCAUGCCUGCAGGUCGACUCUAGAAAACAUG,binding signal (log2 enrichment (interaction score)),[1],< -5.82
same,binding signal (log2 enrichment (interaction score)),[2],-1.58
GGCUAGAACUAGUGGAUCCCCCGGCGCCCGGCGGCUCGAGCCCGGGUAAGUGGAAAAAGUCUGCAUGCCGCCGGGCGCCAUGCCUGCAGGUCGACUCUAGAAAACAUG,binding signal (log2 enrichment (interaction score)),[1],-5.6
same,binding signal (log2 enrichment (interaction score)),[3],< -7.37
same,binding signal (log2 enrichment (interaction score)),[4],-2.76
same,binding signal (log2 enrichment (interaction score)),[5],-0.67
GGCUAGAACUAGUGGAUCCCCCGGCGCCCGGCGGCUCGAGCCCGGGUAAGUGUCCGUUGUCUGCAUGCCGCCGGGCGCCAUGCCUGCAGGUCGACUCUAGAAAACAUG,binding signal (log2 enrichment (interaction score)),[1],-4.78
same,binding signal (log2 enrichment (interaction score)),[2],-1.24
GGCUAGAACUAGUGGAUCCCCCGGCGCCCGGCGGCUCGAGCCCGGGUAAGUUUUGAUAGUCUGCAUGCCGCCGGGCGCCAUGCCUGCAGGUCGACUCUAGAAAACAUG,binding signal (log2 enrichment (interaction score)),[1],-6.01
same,binding signal (log2 enrichment (interaction score)),[3],-7.23
same,binding signal (log2 enrichment (interaction score)),[4],< -8.07
same,binding signal (log2 enrichment (interaction score)),[6],-2.02
GGCUAGAACUAGUGGAUCCCCCGGCGCCCGGCGGCUCGAGCCCGGGUAAGUUUAUUAAGUCUGCAUGCCGCCGGGCGCCAUGCCUGCAGGUCGACUCUAGAAAACAUG,binding signal (log2 enrichment (interaction score)),[1],-5.52
same,binding signal (log2 enrichment (interaction score)),[3],-5.26
same,binding signal (log2 enrichment (interaction score)),[5],-0.7
GGCUAGAACUAGUGGAUCCCCCGGCGCCCGGCGGCUCGAGCCCGGGUAAGUUGAGGUAGUCUGCAUGCCGCCGGGCGCCAUGCCUGCAGGUCGACUCUAGAAAACAUG,binding signal (log2 enrichment (interaction score)),[1],-5.38
same,binding signal (log2 enrichment (interaction score)),[3],-6.82
same,binding signal (log2 enrichment (interaction score)),[4],-8.41
same,binding signal (log2 enrichment (interaction score)),[6],-2.22
GGCUAGAACUAGUGGAUCCCCCGGCGCCCGGCGGCUCGAGCCCGGGUAAGUGUUAGAAGUCUGCAUGCCGCCGGGCGCCAUGCCUGCAGGUCGACUCUAGAAAACAUG,binding signal (log2 enrichment (interaction score)),[1],< -5.5
same,binding signal (log2 enrichment (interaction score)),[3],-7.39
same,binding signal (log2 enrichment (interaction score)),[5],-1.51
GGCUAGAACUAGUGGAUCCCCCGGCGCCCGGCGGCUCGAGCCCGGGUAAGUGGGAGAAGUCUGCAUGCCGCCGGGCGCCAUGCCUGCAGGUCGACUCUAGAAAACAUG,binding signal (log2 enrichment (interaction score)),[1],-5.05
same,binding signal (log2 enrichment (interaction score)),[3],-6.84
same,binding signal (log2 enrichment (interaction score)),[4],< -7.3
same,binding signal (log2 enrichment (interaction score)),[5],-1.67
GGCUAGAACUAGUGGAUCCCCCGGCGCCCGGCGGCUCGAGCCCGGGUAAGUUUAUGAGGUCUGCAUGCCGCCGGGCGCCAUGCCUGCAGGUCGACUCUAGAAAACAUG,binding signal (log2 enrichment (interaction score)),[1],-5.71
same,binding signal (log2 enrichment (interaction score)),[2],-1.7
GGCUAGAACUAGUGGAUCCCCCGGCGCCCGGCGGCUCGAGCCCGGGUAAGAGGAGGGAGUCUGCAUGCCGCCGGGCGCCAUGCCUGCAGGUCGACUCUAGAAAACAUG,binding signal (log2 enrichment (interaction score)),[1],-5.35
same,binding signal (log2 enrichment (interaction score)),[3],-7.06
same,binding signal (log2 enrichment (interaction score)),[4],-7.1

# A different layout for part of the listing above:
sequence | measurement | setting | value
GGCUAGAACUAGUGGAUCCCCCGGCGCCCGGCGGCUCGAGCCCGGGUAAGUGUAAUGCGUCUGCAUGCCGCCGGGCGCCAUGCCUGCAGGUCGACUCUAGAAAACAUG | binding signal (log2 enrichment (interaction score)) | [1] | -6.01
GGCUAGAACUAGUGGAUCCCCCGGCGCCCGGCGGCUCGAGCCCGGGUAAGUUCACUACGUCUGCAUGCCGCCGGGCGCCAUGCCUGCAGGUCGACUCUAGAAAACAUG | binding signal (log2 enrichment (interaction score)) | [1] | -5.18
GGCUAGAACUAGUGGAUCCCCCGGCGCCCGGCGGCUCGAGCCCGGGUAAGUGGAAAAAGUCUGCAUGCCGCCGGGCGCCAUGCCUGCAGGUCGACUCUAGAAAACAUG | binding signal (log2 enrichment (interaction score)) | [5] | -0.67
